{
  "source": "PubChem BioAssay AID504467",
  "about": "(National Center for Advancing Translational Sciences (NCATS), 2011)",
  "note": "Hit rate of the full screen: of about 330,000 compounds, about 7,700 (2.3%) were called active. Inconclusive means that the source gave no clear call. Such entries were picked first, then a sample of the others. Calls follow the shape of the dose curve; as a rule, active = well fitted inhibition curve with a large enough effect; inconclusive = small, poorly fitted or top-dose-only effect, or effect the other way; inactive = flat fitted curve, though single readings scatter. A potency beside an inconclusive call is a rough fit, not a confirmed value. % is scaled to controls: 0 for no effect and ±100 for the full control effect; potency is read from the fitted curve at half-maximal effect.",
  "data": [
    {"experiment": "qHTS screen for small molecules that inhibit ELG1-dependent DNA repair in human embryonic kidney (HEK293T) cells expressing luciferase-tagged ELG1; also: nearly all actives have a fitted effect of over 55% in size", "details": "HEK293T ELG1-luciferase reporter, luminescence, 16 h, DNA damage induced by 5-fluorouridine; activity change, negative = inhibition: at 46.1 µM (top of the series)", "in_short": "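Luminescence from the luciferase reporter, measured 30 min after ONE-Glo reagent at room temperature, was the read-out. Beforehand, 2,000 cells per well were exposed for 16 hr at 37 °C to 5-fluorouridine together with compound or vehicle.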", "values": [
      {"compound": "CCc1ccc(C(=O)Nc2ccc3nc(C)ccc3c2)cc1", "Potency": "inconclusive: 9.2 µM [activator, partial curve]"},
      {"compound": "CCC(C)NC(=O)C1(O)c2cc(Br)ccc2NC(=O)N1c1cccc(OC)c1", "note": "(configuration not stated)", "activity change, negative = inhibition": "inactive: 5.01%"},
      {"compound": "CC(C)[C@H](NC(=O)OCc1ccccc1)C(=O)OCC(=O)N1CCN(c2ccc(F)cc2)CC1", "Potency": "inconclusive: 35.5 µM [inhibitor, single point]"},
      {"compound": "CCON1C(=O)CN(C(=O)OC)C1c1ccc(Cl)cc1Cl", "note": "(configuration not stated)", "Potency": "inconclusive: 5.17 µM [activator, single point]"},
      {"compound": "CCOC(=O)c1cccc(Nc2nc(-c3cccnc3)nc3ccccc23)c1", "Potency": "active: 9.2 µM"},
      {"compound": "O=C(c1cccs1)N1CCN=C1SCc1cccc(F)c1", "activity change, negative = inhibition": "inactive: -4%"},
      {"compound": "CCOC(=O)C1=NN(C(=O)COc2ccccc2)C(O)(c2ccc(Cl)cc2)C1", "note": "(configuration not stated)", "activity change, negative = inhibition": "inactive: 8.45%"},
      {"compound": "CC(C)c1nnc(NC(=O)c2cccc(-n3cnnn3)c2)s1", "activity change, negative = inhibition": "inactive: 12.3%"},
      {"compound": "Cc1ccc(-n2nc3c([n+]2[O-])CCc2c-3no[n+]2[O-])cc1", "Potency": "inconclusive: 29.1 µM [inhibitor, single point]"},
      {"compound": "Clc1ccccc1-c1nc(N/N=C/c2cccnc2)c2ccccc2n1", "Potency": "inconclusive: 5.17 µM [inhibitor, partial curve, poor fit]"},
      {"compound": "Cc1nnc(NC(=O)c2ccc3ccccc3c2)s1", "Potency": "inconclusive: 5.17 µM [activator, partial curve]"},
      {"compound": "O=C(c1cccc(F)c1)N1CCC2(CC1)NCCc1[nH]cnc12", "Potency": "inconclusive: 10.3 µM [activator, partial curve, poor fit]"},
      {"compound": "CC12COC3(C(=O)Nc4nccs4)CC1CCC32C", "note": "(configuration not stated)", "Potency": "inconclusive: 29.1 µM [activator, partial curve, poor fit]"},
      {"compound": "COc1ccc([N+](=O)[O-])cc1/C=N/NC(=O)Cc1ccccc1", "activity change, negative = inhibition": "inactive: -17.1%"},
      {"compound": "CCN(CC)C(=O)[C@H]1C[C@H](CC(=O)NCc2ccc(OC)c(OC)c2)C(=O)N2CCc3c([nH]c4cc(-c5ccco5)ccc34)[C@]12C", "Potency": "active: 23.1 µM"},
      {"compound": "CCOC(=O)N1CCN(C(=O)c2ccc3c(=O)n(CCOC)c(=O)[nH]c3c2)CC1", "activity change, negative = inhibition": "inactive: -9.24%"},
      {"compound": "CC(=O)N1CCN(c2ccc(NC(=O)c3ccccc3)cc2)CC1", "Potency": "inconclusive: 10 µM [activator, partial curve, poor fit]"},
      {"compound": "COc1ccc(-c2ccc(/C=C3/C(=N)N4C(C)=CSC4=NC3=O)o2)c([N+](=O)[O-])c1", "Potency": "inconclusive: 29.1 µM [inhibitor, single point]"},
      {"compound": "Cc1ccccc1CN1C(=O)C(C)S/C1=N/N=C/c1ccco1", "note": "(configuration not stated)", "Potency": "inconclusive: 5.8 µM [inhibitor, single point]"},
      {"compound": "COc1ccc2cc3cc(C(=O)NCCN4CCc5ccccc5C4)oc3nc2c1", "Potency": "inconclusive: 35.5 µM [inhibitor, single point]"},
      {"compound": "O=C(Nc1nsc(-c2ccccc2)n1)c1cccs1", "Potency": "inconclusive: 1.3 µM [activator, partial curve]"},
      {"compound": "CCCCn1c(N)c(N(CCOC)C(=O)COC(=O)CCOc2ccc(C)cc2)c(=O)[nH]c1=O", "activity change, negative = inhibition": "inactive: 1.69%"},
      {"compound": "Cc1nn2c(-c3cccc(NC(=O)c4ccco4)c3)nnc2c2ccccc12", "Potency": "inconclusive: 20.6 µM [inhibitor, partial curve]"},
      {"compound": "CC1(C)CC(=O)C(C(c2ccccc2F)C2C(=O)CC(C)(C)CC2=O)C(=O)C1", "activity change, negative = inhibition": "inactive: 21.7%"},
      {"compound": "CC1CCCN(C(=O)CNS(=O)(=O)c2cccs2)C1", "note": "(configuration not stated)", "Potency": "inconclusive: 29.1 µM [activator, single point]"},
      {"compound": "Cc1ccccc1C1C(C#N)=C2N=C(N)c3c(sc4c3CCCCC4)N2C2=C1C(=O)CCC2", "note": "(configuration not stated)", "Potency": "inconclusive: 18.4 µM [inhibitor, single point]"},
      {"compound": "CC(=O)NC(Cc1ccc(F)cc1)C(=O)NC1CCN(C(=O)Nc2cccc(C)c2)CC1", "note": "(configuration not stated)", "Potency": "inconclusive: 18.3 µM [activator, single point]"},
      {"compound": "Cc1ccc(NC(=O)c2cccc(-n3cnnn3)c2)cc1Cl", "activity change, negative = inhibition": "inactive: -6.09%"},
      {"compound": "C=CCc1c(C)nc(-c2ccccc2)nc1N/N=C(\\C)c1ccccc1", "Potency": "inconclusive: 29.1 µM [inhibitor, single point]"},
      {"compound": "O=c1[nH]c([N+](=O)[O-])nn1C(c1ccccc1)c1ccccc1", "activity change, negative = inhibition": "inactive: -0.038%"},
      {"compound": "Cc1cccc(NC(=O)CSc2nc3ccccc3c(=O)n2C)c1", "Potency": "inconclusive: 11.6 µM [inhibitor, partial curve, poor fit]"},
      {"compound": "CCN1C(=O)Cc2cc(S(=O)(=O)N3CCOCC3)ccc21", "Potency": "inconclusive: 4.11 µM [activator, full curve, poor fit]"},
      {"compound": "NNC(=O)/C(=N/Nc1ccccc1)S(=O)(=O)c1ccc(Cl)cc1", "activity change, negative = inhibition": "inactive: -22.5%"},
      {"compound": "O=C(NC(=S)N1CCc2ccccc21)c1ccccc1", "Potency": "inconclusive: 16.4 µM [activator, partial curve]"},
      {"compound": "CCOc1ccc2nc(NC(=O)CN3CCC(n4nnc5cc(C(F)(F)F)ccc54)CC3)sc2c1", "Potency": "inconclusive: 8.2 µM [inhibitor, partial curve, poor fit]"},
      {"compound": "O=C(COC(=O)C1CC2C=CC1C2)Nc1ccccc1[N+](=O)[O-]", "note": "(configuration not stated)", "activity change, negative = inhibition": "inactive: 0%"},
      {"compound": "COc1ccc(Br)c(C(=O)NNC(=O)c2ccc(NS(=O)(=O)c3cccs3)cc2)c1", "activity change, negative = inhibition": "inactive: -2.61%"},
      {"compound": "O=C(CCC1CCCN(C(=O)C2(c3ccccc3)CC2)C1)N1CCN(c2ccccn2)CC1", "note": "(configuration not stated)", "Potency": "inconclusive: 18.3 µM [activator, single point]"},
      {"compound": "Cc1ccc(N(Cc2cc(=O)[nH]c3ccccc23)C(=O)C(C)C)cc1", "Potency": "inconclusive: 25.9 µM [inhibitor, single point]"},
      {"compound": "Cc1ccc(C(=O)OCC(=O)Nc2cccc(S(=O)(=O)NC3=NCCCCC3)c2)c(C)c1", "Potency": "inconclusive: 32.6 µM [inhibitor, partial curve, poor fit]"},
      {"compound": "COc1ccc(/C=N/Nc2ccccn2)cc1OC", "Potency": "inconclusive: 14.6 µM [activator, partial curve]"},
      {"compound": "COc1ccc(-c2ccc(/C=N/NC(=O)c3cccnc3)o2)c([N+](=O)[O-])c1", "Potency": "inconclusive: 18.4 µM [inhibitor, partial curve, poor fit]"},
      {"compound": "O=[N+]([O-])c1ccc(N2CCN(c3ccccc3O)CC2)c(Cl)c1", "Potency": "inconclusive: 32.6 µM [inhibitor, partial curve, poor fit]"},
      {"compound": "CCN(CC(=O)Nc1ccc(NC(C)=O)cc1)CC(=O)Nc1ccccc1C(=O)c1ccccc1", "Potency": "inconclusive: 5.8 µM [inhibitor, partial curve, poor fit]"},
      {"compound": "Cc1ccc(NC(=S)c2nc3ccccc3s2)cc1", "Potency": "inconclusive: 0.708 µM [activator, full curve, poor fit]"},
      {"compound": "C[C@H](CO)N1C[C@H](C)[C@@H](CN(C)Cc2ccc3c(c2)OCO3)Oc2c(NC(=O)Cc3ccccc3)cccc2C1=O", "Potency": "inconclusive: 25.9 µM [inhibitor, single point]"},
      {"compound": "CCN(C(=O)COC(=O)CSc1ccc(C(N)=O)cc1[N+](=O)[O-])C1CCCCC1", "activity change, negative = inhibition": "inactive: 6.8%"},
      {"compound": "O=C(Nc1ccc(F)cc1)c1cccnn1", "Potency": "inconclusive: 20.6 µM [activator, single point]"},
      {"compound": "COc1ccc(NCc2nnc(SCc3ccc(Cl)cc3)n2-c2ccccc2)cc1", "Potency": "inconclusive: 20.6 µM [inhibitor, single point]"},
      {"compound": "CCN(CC)S(=O)(=O)c1ccc2oc(C(=O)N3CCc4ccccc4C3)c(C)c2c1", "Potency": "inconclusive: 29.1 µM [inhibitor, single point]"},
      {"compound": "COc1cccc(OC)c1C(=O)Nc1cccc(C(C)=O)c1", "Potency": "inconclusive: 16.4 µM [activator, single point]"},
      {"compound": "Cc1ccc(S(=O)(=O)n2nccc2-c2c(-c3ccccc3)noc2C)cc1", "Potency": "inconclusive: 16.4 µM [inhibitor, single point]"},
      {"compound": "CNC[C@H]1Oc2c(NS(=O)(=O)c3ccc(F)cc3)cccc2C(=O)N([C@H](C)CO)C[C@@H]1C", "Potency": "inconclusive: 16.4 µM [activator, single point]"},
      {"compound": "Cc1ccc(SCC(=O)NC(=O)NC(C)C)c(C)c1", "activity change, negative = inhibition": "inactive: -6.81%"},
      {"compound": "COc1ccc(NC(=O)C2(c3ccc(NC(=O)c4ccc(OC(C)=O)cc4)cc3)CCCC2)cc1", "activity change, negative = inhibition": "inactive: 2.51%"},
      {"compound": "O=[N+]([O-])c1cc(Cl)cc(C2=NCCN2)c1", "activity change, negative = inhibition": "inactive: -6.02%"},
      {"compound": "CC(=O)Nc1ccc(-c2csc(Nc3cccc(C)n3)n2)cc1", "Potency": "inconclusive: 9.2 µM [activator, partial curve]"},
      {"compound": "CCCN(CC(=O)Nc1ccccc1OC)C(=O)c1cc(-c2ccccc2)nn1-c1ccccc1", "Potency": "active: 20.6 µM"},
      {"compound": "O=C(Nc1ccc2c(c1)OCO2)Nc1ccc(F)cc1F", "Potency": "inconclusive: 5.17 µM [activator, full curve]"},
      {"compound": "CCc1nn(CC(=O)N2CCN(CC)CC2)c(=O)c2cc3sccc3n12", "activity change, negative = inhibition": "inactive: 0%"},
      {"compound": "CCC(Oc1ccccc1)C(=O)Nc1ccc(-c2nnc(-c3ccco3)o2)cc1", "note": "(configuration not stated)", "Potency": "inconclusive: 2.91 µM [activator, partial curve]"},
      {"compound": "COc1ccc(CNC(=O)COC(=O)c2cc(-c3ccc(Cl)s3)nc3ccccc23)cc1", "activity change, negative = inhibition": "inactive: -2.45%"},
      {"compound": "COc1ccc(-n2cc(CNCCCN3CCCC3=O)c(-c3ccccc3Cl)n2)cc1", "activity change, negative = inhibition": "inactive: -3.81%"},
      {"compound": "COc1ccc(C(=O)NC(=S)N2CCC(C)CC2)cc1", "Potency": "inconclusive: 16.4 µM [activator, single point]"},
      {"compound": "CNC(=O)c1c(Cl)cnn1-c1ccc(F)cc1", "Potency": "inconclusive: 20.6 µM [activator, partial curve]"},
      {"compound": "CCOC(=O)c1cc(-c2ccc(F)cc2)nc2c1c(=O)[nH]c(=O)n2Cc1ccccc1", "activity change, negative = inhibition": "inactive: 29%"},
      {"compound": "CCn1c(SCC(=O)Nc2ccccc2)nnc1-c1ccc(S(=O)(=O)N2CCOCC2)cc1", "Potency": "inconclusive: 32.6 µM [inhibitor, single point]"}
    ]}
  ]
}
